Some of the results follow.

Chains of the proteins cited; added tags and fusions are not shown. Lines headed by an entry give the natural chain unless they say otherwise; changes in a name come on top.
UniProt Q9UET6: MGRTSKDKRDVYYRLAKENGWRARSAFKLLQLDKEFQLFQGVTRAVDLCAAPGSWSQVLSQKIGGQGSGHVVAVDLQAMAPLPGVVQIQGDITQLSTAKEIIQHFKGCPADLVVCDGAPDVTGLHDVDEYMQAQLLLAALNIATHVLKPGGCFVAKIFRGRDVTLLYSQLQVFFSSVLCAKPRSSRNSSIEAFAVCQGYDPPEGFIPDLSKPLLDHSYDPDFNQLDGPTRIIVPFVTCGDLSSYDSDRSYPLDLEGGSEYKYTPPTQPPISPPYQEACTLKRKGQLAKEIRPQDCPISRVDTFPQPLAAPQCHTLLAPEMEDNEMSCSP
UniProt Q8IWJ2: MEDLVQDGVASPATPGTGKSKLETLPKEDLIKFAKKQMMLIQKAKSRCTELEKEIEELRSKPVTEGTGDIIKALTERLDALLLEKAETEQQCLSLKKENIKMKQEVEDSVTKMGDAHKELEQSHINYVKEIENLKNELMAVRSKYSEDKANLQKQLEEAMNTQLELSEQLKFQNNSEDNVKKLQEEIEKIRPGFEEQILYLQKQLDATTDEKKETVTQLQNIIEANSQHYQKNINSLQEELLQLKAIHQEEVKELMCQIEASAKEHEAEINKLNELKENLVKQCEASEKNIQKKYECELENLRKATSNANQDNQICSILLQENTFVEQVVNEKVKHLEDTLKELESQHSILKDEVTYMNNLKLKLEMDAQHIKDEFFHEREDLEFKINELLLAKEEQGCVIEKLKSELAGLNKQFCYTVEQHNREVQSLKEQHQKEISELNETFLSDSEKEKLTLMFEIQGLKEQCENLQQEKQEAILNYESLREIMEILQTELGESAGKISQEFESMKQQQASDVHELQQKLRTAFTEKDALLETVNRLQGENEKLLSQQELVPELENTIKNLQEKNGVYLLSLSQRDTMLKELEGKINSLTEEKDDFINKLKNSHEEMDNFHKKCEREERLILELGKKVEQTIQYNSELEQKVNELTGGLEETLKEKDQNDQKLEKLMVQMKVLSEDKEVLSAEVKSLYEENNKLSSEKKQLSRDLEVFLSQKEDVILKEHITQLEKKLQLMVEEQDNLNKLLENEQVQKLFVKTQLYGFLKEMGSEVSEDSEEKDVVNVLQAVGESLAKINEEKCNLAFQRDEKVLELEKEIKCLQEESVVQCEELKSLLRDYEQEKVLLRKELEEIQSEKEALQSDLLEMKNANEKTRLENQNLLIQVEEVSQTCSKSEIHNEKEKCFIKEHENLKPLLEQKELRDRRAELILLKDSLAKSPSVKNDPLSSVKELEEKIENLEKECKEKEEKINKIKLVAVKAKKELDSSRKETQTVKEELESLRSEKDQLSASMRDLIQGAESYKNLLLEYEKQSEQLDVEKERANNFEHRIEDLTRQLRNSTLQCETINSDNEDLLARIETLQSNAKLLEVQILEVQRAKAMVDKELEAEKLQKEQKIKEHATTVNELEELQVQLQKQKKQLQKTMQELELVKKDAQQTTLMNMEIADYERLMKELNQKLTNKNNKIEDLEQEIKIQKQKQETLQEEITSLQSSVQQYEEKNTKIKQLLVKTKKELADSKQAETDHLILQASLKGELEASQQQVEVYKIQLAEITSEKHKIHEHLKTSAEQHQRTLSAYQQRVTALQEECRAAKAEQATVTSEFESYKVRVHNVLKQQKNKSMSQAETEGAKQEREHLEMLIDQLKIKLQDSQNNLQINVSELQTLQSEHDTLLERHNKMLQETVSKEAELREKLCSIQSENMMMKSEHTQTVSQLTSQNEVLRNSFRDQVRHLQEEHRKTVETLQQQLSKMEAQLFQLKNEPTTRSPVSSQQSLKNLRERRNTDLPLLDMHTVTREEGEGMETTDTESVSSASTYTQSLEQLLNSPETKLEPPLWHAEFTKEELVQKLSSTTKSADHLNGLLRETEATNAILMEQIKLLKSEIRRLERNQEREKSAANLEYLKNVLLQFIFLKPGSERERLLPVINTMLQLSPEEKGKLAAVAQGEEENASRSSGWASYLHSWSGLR
UniProt O14893: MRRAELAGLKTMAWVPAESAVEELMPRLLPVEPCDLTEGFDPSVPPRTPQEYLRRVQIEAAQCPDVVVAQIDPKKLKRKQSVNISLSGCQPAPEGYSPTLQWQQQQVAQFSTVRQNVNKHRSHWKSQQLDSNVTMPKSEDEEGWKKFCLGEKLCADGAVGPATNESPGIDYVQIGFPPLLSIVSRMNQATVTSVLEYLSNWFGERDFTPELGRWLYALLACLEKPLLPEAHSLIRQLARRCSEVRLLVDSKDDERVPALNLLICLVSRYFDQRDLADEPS
UniProt Q14697: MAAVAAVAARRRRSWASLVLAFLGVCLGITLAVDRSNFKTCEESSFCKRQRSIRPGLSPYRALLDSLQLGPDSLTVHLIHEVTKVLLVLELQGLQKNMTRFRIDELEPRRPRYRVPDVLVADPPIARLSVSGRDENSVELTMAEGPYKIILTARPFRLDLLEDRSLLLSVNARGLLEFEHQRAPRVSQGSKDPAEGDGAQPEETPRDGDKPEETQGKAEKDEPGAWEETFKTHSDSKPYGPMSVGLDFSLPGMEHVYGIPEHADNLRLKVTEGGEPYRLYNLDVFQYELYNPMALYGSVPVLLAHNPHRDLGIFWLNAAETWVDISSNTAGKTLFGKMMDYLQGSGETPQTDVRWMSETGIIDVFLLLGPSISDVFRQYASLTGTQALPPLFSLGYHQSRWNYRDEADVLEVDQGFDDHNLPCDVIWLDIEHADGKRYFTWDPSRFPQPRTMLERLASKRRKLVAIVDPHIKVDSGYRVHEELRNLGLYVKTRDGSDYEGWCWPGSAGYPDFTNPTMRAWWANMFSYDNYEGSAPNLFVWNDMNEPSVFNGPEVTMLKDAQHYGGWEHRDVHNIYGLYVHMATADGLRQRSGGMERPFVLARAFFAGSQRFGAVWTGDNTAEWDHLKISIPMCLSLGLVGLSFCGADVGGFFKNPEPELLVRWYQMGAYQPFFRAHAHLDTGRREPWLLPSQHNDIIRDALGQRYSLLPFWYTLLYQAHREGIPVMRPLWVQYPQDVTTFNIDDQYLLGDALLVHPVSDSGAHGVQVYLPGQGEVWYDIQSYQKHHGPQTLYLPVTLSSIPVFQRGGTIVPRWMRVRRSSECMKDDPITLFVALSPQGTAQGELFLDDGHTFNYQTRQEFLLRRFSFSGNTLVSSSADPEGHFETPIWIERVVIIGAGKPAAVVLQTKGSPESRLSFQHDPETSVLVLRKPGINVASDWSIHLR
UniProt Q10471: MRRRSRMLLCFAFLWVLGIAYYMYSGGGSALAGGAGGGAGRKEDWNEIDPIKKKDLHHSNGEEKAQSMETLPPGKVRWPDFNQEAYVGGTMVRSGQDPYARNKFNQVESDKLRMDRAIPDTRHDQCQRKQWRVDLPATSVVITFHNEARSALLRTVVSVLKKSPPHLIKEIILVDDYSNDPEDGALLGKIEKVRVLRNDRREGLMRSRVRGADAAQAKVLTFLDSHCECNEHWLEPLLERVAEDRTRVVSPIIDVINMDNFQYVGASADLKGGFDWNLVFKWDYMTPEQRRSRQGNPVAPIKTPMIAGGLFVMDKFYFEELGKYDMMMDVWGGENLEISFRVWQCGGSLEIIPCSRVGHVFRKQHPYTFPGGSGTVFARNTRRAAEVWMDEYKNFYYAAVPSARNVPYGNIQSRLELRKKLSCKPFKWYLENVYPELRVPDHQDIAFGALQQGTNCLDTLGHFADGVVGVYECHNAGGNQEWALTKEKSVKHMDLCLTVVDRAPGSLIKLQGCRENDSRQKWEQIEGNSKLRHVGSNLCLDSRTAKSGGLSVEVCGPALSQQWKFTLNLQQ
UniProt Q96C23: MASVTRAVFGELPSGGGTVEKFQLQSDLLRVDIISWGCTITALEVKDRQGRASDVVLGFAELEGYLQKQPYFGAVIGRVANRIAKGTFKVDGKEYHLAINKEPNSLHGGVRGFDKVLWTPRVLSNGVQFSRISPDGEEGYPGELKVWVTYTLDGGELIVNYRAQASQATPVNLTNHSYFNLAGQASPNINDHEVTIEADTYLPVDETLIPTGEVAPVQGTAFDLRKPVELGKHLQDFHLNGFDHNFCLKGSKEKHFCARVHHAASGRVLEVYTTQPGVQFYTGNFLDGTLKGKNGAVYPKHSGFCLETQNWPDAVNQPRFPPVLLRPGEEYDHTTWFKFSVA
UniProt Q10472: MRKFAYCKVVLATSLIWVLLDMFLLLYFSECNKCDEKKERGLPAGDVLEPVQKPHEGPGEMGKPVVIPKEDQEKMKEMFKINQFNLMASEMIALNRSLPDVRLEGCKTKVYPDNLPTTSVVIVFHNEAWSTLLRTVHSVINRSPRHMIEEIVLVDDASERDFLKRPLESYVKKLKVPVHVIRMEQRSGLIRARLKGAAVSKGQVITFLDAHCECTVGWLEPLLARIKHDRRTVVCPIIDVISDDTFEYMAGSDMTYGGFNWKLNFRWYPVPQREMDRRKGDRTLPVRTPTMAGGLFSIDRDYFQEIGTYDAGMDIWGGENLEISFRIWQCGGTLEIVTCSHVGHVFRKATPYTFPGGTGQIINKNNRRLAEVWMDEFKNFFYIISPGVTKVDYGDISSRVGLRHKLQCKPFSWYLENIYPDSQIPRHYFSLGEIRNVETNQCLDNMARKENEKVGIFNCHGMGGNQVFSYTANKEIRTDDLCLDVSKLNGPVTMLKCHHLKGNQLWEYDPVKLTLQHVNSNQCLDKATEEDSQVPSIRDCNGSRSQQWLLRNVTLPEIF
UniProt Q8IXK2: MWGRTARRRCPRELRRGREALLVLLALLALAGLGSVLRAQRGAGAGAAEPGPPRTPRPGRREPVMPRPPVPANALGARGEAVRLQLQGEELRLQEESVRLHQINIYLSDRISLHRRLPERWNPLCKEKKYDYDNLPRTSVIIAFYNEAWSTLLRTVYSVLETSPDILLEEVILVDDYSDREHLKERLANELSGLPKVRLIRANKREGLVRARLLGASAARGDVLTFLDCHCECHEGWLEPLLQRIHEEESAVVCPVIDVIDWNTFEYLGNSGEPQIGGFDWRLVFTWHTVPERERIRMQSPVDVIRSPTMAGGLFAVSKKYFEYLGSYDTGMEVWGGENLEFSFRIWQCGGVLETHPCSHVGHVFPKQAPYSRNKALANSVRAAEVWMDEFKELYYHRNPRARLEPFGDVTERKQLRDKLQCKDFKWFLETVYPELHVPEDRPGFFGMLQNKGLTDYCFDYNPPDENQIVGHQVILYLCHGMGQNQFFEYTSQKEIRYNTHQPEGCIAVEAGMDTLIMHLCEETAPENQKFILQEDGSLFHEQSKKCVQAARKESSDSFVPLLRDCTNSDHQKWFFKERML
UniProt Q96RP9: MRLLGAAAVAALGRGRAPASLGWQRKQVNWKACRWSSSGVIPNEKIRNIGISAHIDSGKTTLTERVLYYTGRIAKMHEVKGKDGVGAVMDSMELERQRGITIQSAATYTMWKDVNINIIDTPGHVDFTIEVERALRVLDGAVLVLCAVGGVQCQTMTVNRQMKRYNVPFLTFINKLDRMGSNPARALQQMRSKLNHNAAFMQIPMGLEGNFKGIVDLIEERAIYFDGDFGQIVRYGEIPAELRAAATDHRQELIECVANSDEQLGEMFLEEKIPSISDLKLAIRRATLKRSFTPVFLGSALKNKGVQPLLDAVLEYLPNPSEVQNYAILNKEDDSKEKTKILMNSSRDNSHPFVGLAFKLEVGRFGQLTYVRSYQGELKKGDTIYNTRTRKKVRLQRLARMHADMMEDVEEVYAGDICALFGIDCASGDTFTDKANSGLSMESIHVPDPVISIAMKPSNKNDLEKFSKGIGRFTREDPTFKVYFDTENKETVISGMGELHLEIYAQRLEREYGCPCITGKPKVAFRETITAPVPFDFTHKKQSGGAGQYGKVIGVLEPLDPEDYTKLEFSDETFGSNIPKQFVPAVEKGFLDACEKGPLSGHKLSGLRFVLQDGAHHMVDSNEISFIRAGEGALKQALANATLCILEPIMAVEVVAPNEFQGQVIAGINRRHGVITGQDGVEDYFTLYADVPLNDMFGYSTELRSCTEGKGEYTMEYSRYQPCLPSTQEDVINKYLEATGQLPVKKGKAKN
UniProt P34059: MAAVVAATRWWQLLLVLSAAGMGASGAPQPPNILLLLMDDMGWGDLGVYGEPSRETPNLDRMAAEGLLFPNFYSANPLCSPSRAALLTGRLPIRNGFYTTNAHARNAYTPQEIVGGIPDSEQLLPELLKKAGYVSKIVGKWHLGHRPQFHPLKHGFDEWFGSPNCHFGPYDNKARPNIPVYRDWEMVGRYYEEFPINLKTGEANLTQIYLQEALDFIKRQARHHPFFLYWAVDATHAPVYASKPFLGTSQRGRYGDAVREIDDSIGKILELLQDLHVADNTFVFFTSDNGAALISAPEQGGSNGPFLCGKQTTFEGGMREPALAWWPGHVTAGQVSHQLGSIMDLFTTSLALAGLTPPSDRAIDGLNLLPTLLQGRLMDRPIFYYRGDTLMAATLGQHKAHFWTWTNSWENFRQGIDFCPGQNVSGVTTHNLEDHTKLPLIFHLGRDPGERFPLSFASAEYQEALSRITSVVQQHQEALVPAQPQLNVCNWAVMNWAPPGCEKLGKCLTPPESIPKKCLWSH

Compound in the first experiment: C1CCN(C1)C(=O)NC2=CC=CC(=C2)NC3=NC=C(C(=N3)NCCC4=CN=CN4)Br
In words: log2 fold change, soluble protein after heating vs DMSO (PISA); higher = thermal stabilisation; K562 lysate, 10 uM; active = over 0.2 and 3.5 SD of the protein, either way, in both replicates (recomputed). In short, it runs like this: (§1)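 Thermal stability, expressed as log-two fold change relative to solvent controls, is given from duplicates. Crude K562 extract in PBS pH 7.4 with 1 mM MgCl2, at 1 mg/mL protein, was treated with 10 μM compound for 30 min and heated in aliquots for 3 min across 48°C-58°C. After pooling, adjustment to 0.5% NP-40 at 4°C and centrifugation at 21,000xg for 90 min, supernatant protein was measured by TMTpro 16plex LC-MS/MS with channel sums equalised.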
Take FTSJ1 (UniProt Q9UET6): the log2 fold change was inactive: -0.007.

Regarding GCC2 (UniProt Q8IWJ2), the log2 fold change is inactive: 0.

As for GALNT7 (UniProt Q86SF2), the log2 fold change was inactive: -0.023.

Regarding GEMIN2 (UniProt O14893), the log2 fold change is inactive: -0.007.

For the target GANAB isoform 2 (UniProt Q14697), the log2 fold change was inactive: -0.002.

On to GALNT5 (UniProt Q7Z7M9), for which the log2 fold change is inactive: -0.021.

For the target GALNT2 (UniProt Q10471), the log2 fold change is inactive: -0.045.

With G3BP2 (UniProt Q9UN86), the log2 fold change is inactive: -0.044.

Consider GBA (UniProt P04062), for which the log2 fold change was inactive: 0.074.

For the target FUCA1 (UniProt P04066), the log2 fold change was inactive: 0.039.

Consider GATAD2B (UniProt Q8WXI9), for which the log2 fold change was inactive: 0.016.

Consider FREM2 (UniProt Q5SZK8), for which the log2 fold change is inactive: -0.02.

Turning to FRRS1 (UniProt Q6ZNA5), the log2 fold change is inactive: 0.012.

Consider GCC1 (UniProt Q96CN9), for which the log2 fold change was inactive: 0.071.

Consider FXN (UniProt Q16595), for which the log2 fold change was inactive: 0.054.

With GABPB1 (UniProt Q06547), the log2 fold change is inactive: 0.026.

On to FPGT (UniProt O14772), for which the log2 fold change was inactive: 0.006.

Consider GALM (UniProt Q96C23), for which the log2 fold change was inactive: -0.009.

On to GALNT1 (UniProt Q10472), for which the log2 fold change is inactive: -0.056.

As to GAPDH (UniProt P04406), the log2 fold change was inactive: 0.027.

On to GFER (UniProt P55789), for which the log2 fold change is inactive: 0.032.

In the case of GFPT1 (UniProt Q06210), the log2 fold change is inactive: -0.021.

Regarding GART (UniProt P22102), the log2 fold change was inactive: -0.001.

On to GALNT12 (UniProt Q8IXK2), for which the log2 fold change is inactive: -0.031.

For the target GFM1 (UniProt Q96RP9), the log2 fold change is inactive: -0.003.

Regarding FYB1 isoform 3 (UniProt O15117), the log2 fold change was inactive: -0.012.

As for GABARAP (UniProt O95166), the log2 fold change was inactive: 0.048.

As to GCSH (UniProt P23434), the log2 fold change was inactive: -0.035.

GARS1 (UniProt P41250): the log2 fold change is inactive: 0.01.

Consider GEMIN6 (UniProt Q8WXD5), for which the log2 fold change was inactive: -0.022.

Regarding GALNS (UniProt P34059), the log2 fold change is inactive: -0.018.

As for GALE (UniProt Q14376), the log2 fold change was inactive: -0.028.

FSCN1 (UniProt Q16658): the log2 fold change was inactive: 0.023.

Compound in another experiment: C1CN(CCC1(CC2=CC=C(C=C2)Cl)N)C3=NC=NC4=C3C=CN4
The experiment is described as above. In short, it runs like this: as §1
Take FTSJ1 (UniProt Q9UET6): the log2 fold change was inactive: 0.016.

Take GCC2 (UniProt Q8IWJ2): the log2 fold change was inactive: 0.001.

For GALNT7 (UniProt Q86SF2), the log2 fold change is inactive: -0.023.

For GEMIN2 (UniProt O14893), the log2 fold change was inactive: 0.011.

For the target GANAB isoform 2 (UniProt Q14697), the log2 fold change was inactive: -0.001.

For GALNT5 (UniProt Q7Z7M9), the log2 fold change is inactive: 0.03.

Take GALNT2 (UniProt Q10471): the log2 fold change was inactive: 0.002.

With G3BP2 (UniProt Q9UN86), the log2 fold change was inactive: 0.009.

For the target GBA (UniProt P04062), the log2 fold change was inactive: 0.024.

In the case of FUCA1 (UniProt P04066), the log2 fold change is inactive: -0.018.

Take GATAD2B (UniProt Q8WXI9): the log2 fold change is inactive: 0.033.

As for FREM2 (UniProt Q5SZK8), the log2 fold change was inactive: -0.021.

With FRRS1 (UniProt Q6ZNA5), the log2 fold change was inactive: -0.006.

In the case of GCC1 (UniProt Q96CN9), the log2 fold change is inactive: -0.025.

As to FXN (UniProt Q16595), the log2 fold change is inactive: 0.106.

On to GABPB1 (UniProt Q06547), for which the log2 fold change was inactive: -0.008.

Regarding FPGT (UniProt O14772), the log2 fold change is inactive: -0.013.

In the case of GALM (UniProt Q96C23), the log2 fold change was inactive: 0.022.

In the case of GALNT1 (UniProt Q10472), the log2 fold change is inactive: -0.006.

Consider GAPDH (UniProt P04406), for which the log2 fold change is inactive: -0.034.

Consider GFER (UniProt P55789), for which the log2 fold change is inactive: -0.015.

As for GFPT1 (UniProt Q06210), the log2 fold change is inactive: 0.008.

As for GART (UniProt P22102), the log2 fold change is inactive: -0.003.

For the target GALNT12 (UniProt Q8IXK2), the log2 fold change is inactive: 0.024.

Consider GFM1 (UniProt Q96RP9), for which the log2 fold change was inactive: 0.005.

In the case of FYB1 isoform 3 (UniProt O15117), the log2 fold change is inactive: 0.028.

For GABARAP (UniProt O95166), the log2 fold change is inactive: 0.016.

Regarding GCSH (UniProt P23434), the log2 fold change is inactive: 0.078.

On to GARS1 (UniProt P41250), for which the log2 fold change was inactive: -0.01.

Consider GEMIN6 (UniProt Q8WXD5), for which the log2 fold change was inactive: 0.033.

In the case of GALNS (UniProt P34059), the log2 fold change is inactive: 0.031.

GALE (UniProt Q14376): the log2 fold change was inactive: -0.006.

In the case of FSCN1 (UniProt Q16658), the log2 fold change was inactive: -0.023.

Compound in the next experiment: C1COCCN1CCN2C3=CC=CC=C3N=C2NC(=O)C4=CC(=CC=C4)[N+](=O)[O-] [IRAK-1-4 Inhibitor I]
The experiment is described as above. The gist of the method: as §1
FTSJ1 (UniProt Q9UET6): the log2 fold change is inactive: 0.019.

Take GCC2 (UniProt Q8IWJ2): the log2 fold change was inactive: -0.004.

On to GALNT7 (UniProt Q86SF2), for which the log2 fold change is inactive: 0.025.

For the target GEMIN2 (UniProt O14893), the log2 fold change is inactive: 0.05.

For GANAB isoform 2 (UniProt Q14697), the log2 fold change was inactive: -0.011.

In the case of GALNT5 (UniProt Q7Z7M9), the log2 fold change was inactive: 0.015.

As to GALNT2 (UniProt Q10471), the log2 fold change was inactive: -0.012.

On to G3BP2 (UniProt Q9UN86), for which the log2 fold change is inactive: -0.012.

For GBA (UniProt P04062), the log2 fold change was inactive: -0.019.

On to FUCA1 (UniProt P04066), for which the log2 fold change is inactive: 0.009.

Take GATAD2B (UniProt Q8WXI9): the log2 fold change was inactive: 0.02.

Turning to FREM2 (UniProt Q5SZK8), the log2 fold change is inactive: 0.009.

Regarding FRRS1 (UniProt Q6ZNA5), the log2 fold change was inactive: 0.038.

As for GCC1 (UniProt Q96CN9), the log2 fold change is inactive: -0.004.

Consider FXN (UniProt Q16595), for which the log2 fold change was inactive: -0.004.

In the case of GABPB1 (UniProt Q06547), the log2 fold change was inactive: -0.042.

For FPGT (UniProt O14772), the log2 fold change is inactive: 0.023.

With GALM (UniProt Q96C23), the log2 fold change was inactive: 0.014.

For the target GALNT1 (UniProt Q10472), the log2 fold change was inactive: -0.009.

GAPDH (UniProt P04406): the log2 fold change was inactive: 0.003.

For GFER (UniProt P55789), the log2 fold change was inactive: 0.027.

For the target GFPT1 (UniProt Q06210), the log2 fold change was inactive: 0.006.

Turning to GART (UniProt P22102), the log2 fold change was inactive: 0.005.

With GALNT12 (UniProt Q8IXK2), the log2 fold change is inactive: 0.001.

As to GFM1 (UniProt Q96RP9), the log2 fold change is inactive: -0.018.

As to FYB1 isoform 3 (UniProt O15117), the log2 fold change was inactive: 0.024.

For the target GABARAP (UniProt O95166), the log2 fold change was inactive: 0.006.

In the case of GCSH (UniProt P23434), the log2 fold change was inactive: -0.017.

Regarding GARS1 (UniProt P41250), the log2 fold change is inactive: 0.015.

On to GEMIN6 (UniProt Q8WXD5), for which the log2 fold change was inactive: 0.021.

GALNS (UniProt P34059): the log2 fold change is inactive: 0.007.

For the target GALE (UniProt Q14376), the log2 fold change was inactive: -0.034.

Turning to FSCN1 (UniProt Q16658), the log2 fold change was inactive: 0.005.

The values are drawn from the supplement of paper PMC10849652.
